Assays:
HepG2 = test: MTT cell viability assay, HepG2; type: cell-based, human; conditions: NHDF vs HepG2
CT-DNA [1] = test: DNA binding by cyclic voltammetry; conditions: for Shift of formal electrode potential, bound vs free: M^1+/M^2+ couple; for Ratio of binding constants K^1+/K^2+ (K[red]/K[oxi]), found (I): method I, head is a drawing; for S (bp), binding site size: method II; for Do (diffusion coefficient), bound / E° (or E1/2), bound / Peak current ratio (Ipa/Ipc; head is a drawing), bound / ΔEP, bound: with DNA; for Do (diffusion coefficient), free / E° (or E1/2), free / Peak current ratio (Ipa/Ipc; head is a drawing), free / ΔEP, free: without DNA; for ΔEP, free: scan rate 100 mV s^−1
Description: The changes in peak current as well as peak potential were monitored while concentrations of CT-DNA were increased (0–10 μM) in each sample solution.[13,36]
The CV approach is one of the most important methods for evaluating the binding mechanism of a DNA–complex adduct. The CV properties of all test samples in the presence and absence of DNA were executed at a scan rate (v) of 0.1 V s^−1 with a potential range of +2 to −2 in a Tris–HCl (5 mM)/NaCl (50 mM) (pH = 7.2) solution. The M^1+/M^2+ redox couple is caused by complexes that reveal a single anodic and cathodic peak. […] (Fig. S31 ^† and Table 6).
ΔEP is peak-to-peak separation = (EPa − EPc); E° (or E1/2) denotes the formal electrode potential = 1/2(EPa + EPc); [drawing 41] [drawing 42] and [drawing 43] represent the formal electrode potential of the M^1+/M^2+ couple in the bound and free forms, respectively. [drawing 44] = +19 mV (HL), +18 mV (1), +16 mV (2), +16 mV (3). Ipa is anodic peak current, Ipc is cathodic peak current. K^1+ is the binding constant of the reduction process, K^2+ is the binding constant of the oxidation process. S represents the binding site size of base pairs (bp) with a molecule of complex, scan rate is 100 mV s^−1, binding constant (Kb) values observed from the linear plots of log(1/[DNA]) versus log(I/I0 − I) for oxidation and reduction, (I0 − IDNA)/IDNA = Cp/Cfversus [DNA] and I^2p versus(I^2po − I^2p)/[DNA] by methods I, II and III, respectively.
While the substances often bind to DNA through intercalation, the peak potential shifts in a positive direction. When the compounds bind to DNA through minor or major grooves or electrostatic attractions, the peak potential shifts occur in a negative direction. It was observed that the consistent movement of peak potential shifts in the positive direction during increments of DNA with test substances. The binding mode in compound–DNA adducts has been described as primarily intercalation (Fig. S31 ^†), and it is also attributed to the presence of 2,2′-bipyridine and morpholine fused aromatic planar systems in mixed ligand complexes, which can create inclusion through intercalation due to hydrophobic and π–π stacking interactions in the DNA base pairs. It is also supported by the evaluated outcomes from UV-vis spectral, emission titration, viscometric, and biothermodynamic properties. Furthermore, the observed values of Kb, S, and the ratio of binding constants (K^1+/K^2+) for M^1+/M^2+ couple systems further confirmed the binding affinity via intercalation. Also, the subsequent eqn (24)–(35) are applied to determine the above parameters.[88,89]Eqn (24) is acquired from modification of the Stern–Volmer eqn (14) (Table 6). The Kb values for all samples were estimated from the linear regression plot of log(1/[DNA]) versus log(I/I0 − I) by method I (Fig. S32 ^† and Table 6). Eqn (26) was obtained from revision of eqn (25). Also, binding site size (S, bp) and Kb are estimated from eqn (30) from the linear regression plot of (Cp/Cf) versus [DNA] by method-II[90–92] (Fig. S33 ^† and Table 6). In addition, base-pair sites with a molecule of the compound are referred to as “binding site size” (S), and the evaluated S values were found in the range from 0.1718 to 0.4599 bp. […] In the Nernst eqn (31) and (32) for the galvanic cell, [drawing 58] , the formal electrode potentials of the M^1+/M^2+ couple in their bound and free forms are E1/2 or [drawing 59] and [drawing 60] , respectively. As a result of the variable binding state [M^1+/M^2+] and the delayed mass transfer of test compounds that interacted with DNA fragments, the addition of DNA to the compound solution enabled a change in the redox potential to a higher positive direction and a drop in both anodic and cathodic peak currents. In particular, the equilibrium of M^1+/M^2+ is influenced by electrostatic or hydrophobic interactions.

CT-DNA [2] = test: DNA thermal denaturation / biothermodynamic properties; type: binding

SMILES | SI (IC50 normal cells/IC50 cancer cells) (HepG2) | Shift of formal electrode potential, bound vs free (CT-DNA [1]) | Ratio of binding constants K^1+/K^2+ (K[red]/K[oxi]), found (I) (CT-DNA [1]) | S (bp), binding site size (CT-DNA [1]) | Do (diffusion coefficient), bound (CT-DNA [1]) | E° (or E1/2), bound (CT-DNA [1]) | Peak current ratio (Ipa/Ipc; head is a drawing), bound (CT-DNA [1]) | ΔEP, bound (CT-DNA [1]) | Do (diffusion coefficient), free (CT-DNA [1]) | E° (or E1/2), free (CT-DNA [1]) | Peak current ratio (Ipa/Ipc; head is a drawing), free (CT-DNA [1]) | ΔEP, free (CT-DNA [1]) | ΔG° (CT-DNA [2]; 10 °C (283 K)) | ΔH° (CT-DNA [2]; 10–40 °C (283–313 K)) | ΔS° (CT-DNA [2]; 10–40 °C (283–313 K)) | ΔG° (CT-DNA [2]; 25 °C (298 K)) | ΔG° (CT-DNA [2]; 40 °C (313 K)) | ΔG° (CT-DNA [2]; at Tm) | ΔH° (CT-DNA [2]; at Tm) | ΔS° (CT-DNA [2]; at Tm)
[Mn+2].[O-]c1ccccc1N=Cc1ccc(N2CCOCC2)cc1.[O-]c1ccccc1N=Cc1ccc(N2CCOCC2)cc1.c1ccc(-c2ccccn2)nc1 [(1)] | 2.13 | +18 mV | 0.7874 | 0.287 bp | 3.1295 × 10^−5 cm^2 s^−1 | 0.7310 V | 0.4800 | 0.1477 V | 3.1445 × 10^−5 cm^2 s^−1 | 0.7126 V | 0.6194 | 0.3801 V | -6.2919 kcal/mol | -3.3331 kcal/mol | -0.0061793 kcal/mol | -5.8081 kcal/mol | -5.5682 kcal/mol | -5.3376 kcal/mol | -8.5588 kcal/mol | -0.0092304 kcal/mol
[Co+2].[O-]c1ccccc1N=Cc1ccc(N2CCOCC2)cc1.[O-]c1ccccc1N=Cc1ccc(N2CCOCC2)cc1.c1ccc(-c2ccccn2)nc1 [(2)] | 2.06 | +16 mV | 0.7973 | 0.125 bp | 4.0684 × 10^−5 cm^2 s^−1 | 0.8177 V | 0.4073 | 0.1553 V | 4.1374 × 10^−5 cm^2 s^−1 | 0.8015 V | 0.6307 | 0.2790 V | -6.4673 kcal/mol | -3.7445 kcal/mol | -0.0074978 kcal/mol | -5.8277 kcal/mol | -5.593 kcal/mol | -5.4118 kcal/mol | -8.1656 kcal/mol | -0.0078457 kcal/mol
[Ni+2].[O-]c1ccccc1N=Cc1ccc(N2CCOCC2)cc1.[O-]c1ccccc1N=Cc1ccc(N2CCOCC2)cc1.c1ccc(-c2ccccn2)nc1 [(3)] | 2.19 | +16 mV | 0.8003 | 0.382 bp | 3.1983 × 10^−5 cm^2 s^−1 | 0.7688 V | 0.2189 | 0.1375 V | 3.7063 × 10^−5 cm^2 s^−1 | 0.7528 V | 1.8405 | 0.2686 V | -6.4218 kcal/mol | -3.6540 kcal/mol | -0.007216 kcal/mol | -5.8085 kcal/mol | -5.5798 kcal/mol | -5.3633 kcal/mol | -8.3598 kcal/mol | -0.0085613 kcal/mol
Oc1ccccc1N=Cc1ccc(N2CCOCC2)cc1 [(HL), 2-(4-morpholinobenzylideneamino)phenol] | 1.92 | +19 mV | 0.7214 | 0.452 bp | 2.5809 × 10^−5 cm^2 s^−1 | 0.3680 V | 1.3424 | 0.8890 V |  | 0.3490 V | 1.4295 | 0.7420 V | -6.1124 kcal/mol | -3.2141 kcal/mol | -0.0059041 kcal/mol | -5.7004 kcal/mol | -5.4174 kcal/mol | -5.0249 kcal/mol | -9.8084 kcal/mol | -0.0137852 kcal/mol

Reference: article PMC10508264, “Exploring the antioxidant, antimicrobial, cytotoxic and biothermodynamic properties of novel morpholine derivative bioactive Mn(II), Co(II) and Ni(II) complexes – combined experimental and theoretical measurements towards DNA/BSA/SARS-CoV-2 3CL^Pro” (RSC Medicinal Chemistry, 2023)
